Numbering of substitutions follows the chain as printed. No constants are given. Whether binding was seen depends on the method and setting. Some results given as binding are weak or reduced against the parent protein; the word gives no strength. Sequences can lack the tags named with a protein.
Experiments:
[1] = target: T1, His6-hsPEX19-FI^Bpa (human) (UniProt P40855); experiment: cross-linking; Bpa photo-cross-linking of hsPEX19^Bpa (Bpa at F255) with MBP-WT, N17-MBP and N17-MBP variants; both purified
T1 sequence (chain, p-benzoyl-L-phenylalanine (Bpa) in place of residue F255): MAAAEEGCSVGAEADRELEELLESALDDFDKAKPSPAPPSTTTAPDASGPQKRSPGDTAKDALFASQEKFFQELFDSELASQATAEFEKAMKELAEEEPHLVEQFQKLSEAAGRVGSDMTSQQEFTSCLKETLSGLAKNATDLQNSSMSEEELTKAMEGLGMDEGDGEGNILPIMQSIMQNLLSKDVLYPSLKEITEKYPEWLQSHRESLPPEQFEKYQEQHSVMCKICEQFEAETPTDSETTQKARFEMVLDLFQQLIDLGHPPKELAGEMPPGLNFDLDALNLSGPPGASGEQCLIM

Amino acid sequences for entries named in this document (tags omitted). A change or cut given only in a name is not applied to a line headed by its entry.
UniProt P42858: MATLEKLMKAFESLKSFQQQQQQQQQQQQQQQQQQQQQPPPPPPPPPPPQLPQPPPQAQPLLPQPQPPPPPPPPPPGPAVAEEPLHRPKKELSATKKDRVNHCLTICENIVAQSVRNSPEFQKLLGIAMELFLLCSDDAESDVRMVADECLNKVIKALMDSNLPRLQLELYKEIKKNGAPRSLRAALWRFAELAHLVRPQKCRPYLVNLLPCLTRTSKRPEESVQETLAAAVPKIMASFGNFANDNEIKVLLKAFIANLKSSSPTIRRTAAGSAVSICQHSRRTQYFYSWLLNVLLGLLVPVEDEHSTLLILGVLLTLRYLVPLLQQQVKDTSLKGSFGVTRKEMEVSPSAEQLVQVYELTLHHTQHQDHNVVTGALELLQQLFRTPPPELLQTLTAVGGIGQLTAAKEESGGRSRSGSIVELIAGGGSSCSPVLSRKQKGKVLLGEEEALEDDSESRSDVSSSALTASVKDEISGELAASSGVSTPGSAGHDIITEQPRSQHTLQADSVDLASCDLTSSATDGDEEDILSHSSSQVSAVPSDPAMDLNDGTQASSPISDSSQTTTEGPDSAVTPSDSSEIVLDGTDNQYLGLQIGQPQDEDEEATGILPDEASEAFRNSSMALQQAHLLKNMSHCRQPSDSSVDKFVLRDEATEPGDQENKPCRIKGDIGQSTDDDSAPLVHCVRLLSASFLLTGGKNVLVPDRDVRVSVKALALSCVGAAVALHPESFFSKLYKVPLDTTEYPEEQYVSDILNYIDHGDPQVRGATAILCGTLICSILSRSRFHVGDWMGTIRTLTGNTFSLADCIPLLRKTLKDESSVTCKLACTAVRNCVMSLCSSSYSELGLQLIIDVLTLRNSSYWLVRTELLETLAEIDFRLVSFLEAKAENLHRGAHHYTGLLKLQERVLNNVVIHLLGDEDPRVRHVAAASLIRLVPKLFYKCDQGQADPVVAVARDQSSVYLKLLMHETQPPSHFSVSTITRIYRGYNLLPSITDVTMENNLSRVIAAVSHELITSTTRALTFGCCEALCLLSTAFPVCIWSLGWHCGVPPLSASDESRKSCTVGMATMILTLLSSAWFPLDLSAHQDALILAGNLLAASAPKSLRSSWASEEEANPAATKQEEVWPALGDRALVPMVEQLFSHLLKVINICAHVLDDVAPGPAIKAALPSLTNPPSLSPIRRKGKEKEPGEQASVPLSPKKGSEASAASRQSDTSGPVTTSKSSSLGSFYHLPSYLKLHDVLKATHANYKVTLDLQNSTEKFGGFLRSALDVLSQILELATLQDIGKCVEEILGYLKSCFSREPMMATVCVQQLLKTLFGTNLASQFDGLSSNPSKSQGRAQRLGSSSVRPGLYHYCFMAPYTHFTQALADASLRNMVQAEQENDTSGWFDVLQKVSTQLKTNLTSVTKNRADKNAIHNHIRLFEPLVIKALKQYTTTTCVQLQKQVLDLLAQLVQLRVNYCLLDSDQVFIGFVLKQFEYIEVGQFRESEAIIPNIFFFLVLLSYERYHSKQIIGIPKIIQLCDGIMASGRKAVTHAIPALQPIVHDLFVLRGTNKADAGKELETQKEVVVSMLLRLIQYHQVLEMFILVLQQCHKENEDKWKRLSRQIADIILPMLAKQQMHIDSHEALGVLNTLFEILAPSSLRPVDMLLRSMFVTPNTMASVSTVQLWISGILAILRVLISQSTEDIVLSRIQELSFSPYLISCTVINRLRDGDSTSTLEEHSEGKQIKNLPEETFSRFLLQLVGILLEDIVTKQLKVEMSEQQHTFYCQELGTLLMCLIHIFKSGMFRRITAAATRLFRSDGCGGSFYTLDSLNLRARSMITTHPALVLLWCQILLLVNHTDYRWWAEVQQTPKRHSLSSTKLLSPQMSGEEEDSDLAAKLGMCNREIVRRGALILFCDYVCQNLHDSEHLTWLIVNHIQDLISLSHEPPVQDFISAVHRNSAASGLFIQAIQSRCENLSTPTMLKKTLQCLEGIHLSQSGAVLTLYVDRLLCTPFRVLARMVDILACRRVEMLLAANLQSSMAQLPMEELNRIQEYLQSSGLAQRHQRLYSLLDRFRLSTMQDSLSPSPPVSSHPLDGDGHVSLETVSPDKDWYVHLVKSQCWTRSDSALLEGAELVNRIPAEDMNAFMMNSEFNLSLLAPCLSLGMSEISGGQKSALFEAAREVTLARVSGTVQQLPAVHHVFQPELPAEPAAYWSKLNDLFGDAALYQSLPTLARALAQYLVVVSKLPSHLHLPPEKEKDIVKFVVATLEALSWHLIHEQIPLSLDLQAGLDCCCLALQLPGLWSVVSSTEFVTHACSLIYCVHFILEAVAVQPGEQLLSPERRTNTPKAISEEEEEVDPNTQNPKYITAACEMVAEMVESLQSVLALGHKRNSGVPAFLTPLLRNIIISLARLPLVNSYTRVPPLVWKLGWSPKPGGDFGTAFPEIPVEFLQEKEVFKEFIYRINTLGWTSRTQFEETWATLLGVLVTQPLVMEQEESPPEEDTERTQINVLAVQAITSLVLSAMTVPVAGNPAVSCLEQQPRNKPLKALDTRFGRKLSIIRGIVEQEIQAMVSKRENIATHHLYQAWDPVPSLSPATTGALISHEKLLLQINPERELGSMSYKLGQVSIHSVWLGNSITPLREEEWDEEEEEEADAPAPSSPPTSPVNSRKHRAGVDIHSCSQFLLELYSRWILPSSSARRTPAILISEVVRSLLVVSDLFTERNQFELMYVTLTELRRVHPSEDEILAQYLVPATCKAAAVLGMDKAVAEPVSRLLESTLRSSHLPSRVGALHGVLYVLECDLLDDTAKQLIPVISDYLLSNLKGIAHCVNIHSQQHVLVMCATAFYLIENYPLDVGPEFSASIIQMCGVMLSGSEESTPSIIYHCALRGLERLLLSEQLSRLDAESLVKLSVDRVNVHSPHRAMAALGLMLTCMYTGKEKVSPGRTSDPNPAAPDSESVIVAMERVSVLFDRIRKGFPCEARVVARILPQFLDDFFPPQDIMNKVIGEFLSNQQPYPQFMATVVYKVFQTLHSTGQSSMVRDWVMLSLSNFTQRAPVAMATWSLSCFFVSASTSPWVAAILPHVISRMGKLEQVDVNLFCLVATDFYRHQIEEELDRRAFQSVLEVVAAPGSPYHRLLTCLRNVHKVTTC

[2] = target: T2, His6-hsPEX19-FV^Bpa (human) (UniProt P40855); experiment: as above
T2 sequence (chain, p-benzoyl-L-phenylalanine (Bpa) in place of residue F255): T1 sequence (chain, p-benzoyl-L-phenylalanine (Bpa) in place of residue F255) with I259V

binding [1]: binds | binding [2]: binds
Substance: N17-MBP-His6 (from UniProt P42858 1-17) (domain or fragment)
